Data from paper PMC5591878.
These are yes or no findings as the source states them, for the method shown. In cells and extracts the contact can be indirect. Here binding means that the protein was enriched with, or labelled near, the bait; the list need not be complete. For some assays here: Tags and fused reporters may be left off the sequences shown.

The chains behind the UniProt entries cited, without tags or fusion partners.
UniProt P48580: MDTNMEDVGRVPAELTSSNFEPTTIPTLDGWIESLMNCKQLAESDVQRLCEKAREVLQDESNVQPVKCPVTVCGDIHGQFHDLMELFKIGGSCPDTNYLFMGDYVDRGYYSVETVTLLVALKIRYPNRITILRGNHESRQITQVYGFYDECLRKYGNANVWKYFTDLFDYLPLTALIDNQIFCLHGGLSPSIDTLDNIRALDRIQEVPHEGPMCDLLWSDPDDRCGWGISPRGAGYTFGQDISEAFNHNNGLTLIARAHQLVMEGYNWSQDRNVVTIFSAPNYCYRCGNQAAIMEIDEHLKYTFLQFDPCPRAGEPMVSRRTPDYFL

B1: MYC::COT1, COT1 kinase with MYC tag (enzyme, UniProt P38679 1-598)
chain: MDNTNRPHLNLGTNDTRMAPNDRTYPTTPSTFPQPVFPGQQAGGSQQYNQAYAQSGNYYQQNHNDPNTGLAHQFAHQNIGSAGRASPYGSRGPSPAQRPRTSGNSGQQQTYGNYLSAPMPSNTQTEFAPAPERNPDKYGPNANNNQKKCSQLASDFFKDSVKRARERNQRQSEMEQKLGETNDARRRESIWSTAGRKEGQYLRFLRTKDKPENYQTIKIIGKGAFGEVKLVQKKADGKVYAMKSLIKTEMFKKDQLAHVRAERDILAESDSPWVVKLYTTFQDANFLYMLMEFLPGGDLMTMLIKYEIFSEDITRFYIAEIVLAIDAVHKLGFIHRDIKPDNILLDRGGHVKLTDFGLSTGFHKLHDNNYYTQLLQGKSNKPRDNRNSVAIDQINLTVSNRAQINDWRRSRRLMAYSTVGTPDYIAPEIFTGHGYSFDCDWWSLGTIMFECLVGWPPFCAEDSHDTYRKIVNWRHSLYFPDDITLGVDAENLIRSLICNTENRLGRGGAHEIKSHAFFRGVEFDSLRRIRAPFEPRLTSAIDTTYFPTDEIDQTDNATLLKAQQAARGAAAPAQQEESPELSLPFIGYTFKRFDNNFR
B2: COT1, nuclear Dbf2-related (NDR) Ser/Thr kinase (protein, UniProt P38679 1-598)
chain: B1 chain
B3: GUL1 (protein, UniProt Q1K842 1-1365)
chain: MDQQQQPQGGVSGPAGRRLHIAHRRSPSELTPLMSMFSNTNMEQLAIQQQIELLQQQQQQITAQYANLGMLPATQPLGPGGFTNFQPIAGLAPQAGFQFPVQLQQQPPLAPPTQPLSHRRNQSAIPNMGMGGPPPAPSAGASGSTFGNFQDPTQGHARENSTGGRGGRGGSGGGHQRRHSLALADAKKAAEIAQQKRTTSTFQFPAAPAPGSSEKSEDDAKTTPSTTPAPAEGQIAQGSSFRGGRGGHGRSQSMAVGANGRGGRGGHFSTDSVGQGSDFSRRAPGSGHARTGSRNFDGNWRNQNQNQNQNQAQDQTAALPQSQGFQPGHRSRGSVSQSISSIGSFQYPGQPQLVQFPGQMMMPQVFPGQQLNPMQLNQLQALQLAQMNGQPLTGLAASQHAPQMAAPGQQSQQQQRKTLFTPYLPQATLPALLGNGQLVSGILRVNKKNRSDAYVSTQDGLLPADIFICGSKDRNRALEGDLVAVELLDVGEVWAQKREKEEKKKRKDITDTRSGSISGGQNTGDDNGNAEGGLRRRGSLRQRPTQKKNDDVEVEGQSLLLVEEEEINDEQQPLFAGHIVAVIERVPGQMFSGTLGLLRPSSQATKEKQEAERAARDGGNGRQQDSRSHEKPKIVWFKPTDKRVPLIAIPTEQAPKDFVEKHQDYADQIFVACIKRWPITSLHPFGTLVEKLGKMGDLKVETDALLRDNNFASDEFAEAVLRNVSQQDWSLESEDQAALAARRDFRGENVFTVELDSSVELGNGVHFKQLPDGKIEIGIHVPDVAHFVKPGSLVDREAKKRGTAVHLVNRFCALLPPKLSSELCTLTPEQDRLTFSVVFHVNPQTGAVAEGDTWIGKGIVKSGGKVSLSEIDEAISGSSGFSHPSVKALDIQILNAVAQKFREARLGAGGEPIAPLRLLQQLDDENIPPKHNIFESSQATELVEELMHKANTHVAQRLAQGLPEKALLRRQSAPNSRRLQTIIDRMTALGYDIDATSSGTLQNSLFKIDDSDIRKGMETLLVKSMQRAKYFIAGKTASLLWPHYALNLPLYTHFTYPTRRYADIIVHRQLEAVLSDGKIEYTEDLENLVKTVESCNTKKDSAQNAQEQSVHIESCRTMDKKRQEVNGDLISEGIVICVYESAFDVLIPEWGFEKRVHCDQLPLKKAEFRKEKRVLELYWEKGVPSSAYVPEDERPKAAASQRISNALAAARQAEEAERAKKDREEAARKQIETGTVSHDDVDALFQDEDEDDIEDNASDITEAMAGASLAERPTQSVPGSPTQSAAEAVGTLHRTRSDSKVPVGEAPEARLTNKEKYLKLFKLREEGGEYIQDVTEMTRVPVILKTDLSKSPPCLTIRSLNPYAL
B4: MOB2B (protein, UniProt Q7SD46 1-303)
chain: MPSPSNNSISSQSSANLSSKLPPLPASPSLSQSIGMMGTGEEALNAYHLPRPLPLWLNPTAAKHIVKGNFMTLSARPKTVEQGEWIAHQVVEHYRNLWNFVRVVYEKEEDGKSICNSITCPRMSAGTNHSYTWLNSRFEPIELPAYEYITLMQRWISGKIDDTKMFPTEASGVSFAHNPQITTTALLTGPDDWIGKRSGFPKEFFNICQTIFLQMFRVYAHLYWAHFTEPFYHLNLEKQLNSCFSHFVLTATALDMLKPAELEPMQPLIDLWAANGTFPPESKAYEYANLKVGTRLMQMAGLA

What was measured:
Test in all cases: affinity purification with mass spectrometry; tagged proteins immunoprecipitated with anti-cMYC or anti-GFP antibodies, run briefly on a 4-12% SDS-PAGE gel, digested with trypsin, LC-MS on a Q Exactive plus
[1] = target: B56::GFP, PP2A regulatory subunit B56 fused to GFP (Neurospora crassa)
[2] = target: RGB1::GFP, PP2A regulatory subunit RGB1 fused to GFP (Neurospora crassa)
[3] = target: MYC::PPH1, PP2A catalytic subunit PPH1 with MYC tag (Neurospora crassa) (UniProt P48580)

binding [1]	binding [2]	binding [3]	Binder
binds	binds		B1
		binds	B2
		binds	B3
		binds	B4
